Consider one molecule from article PMC6831569.

No constants are given. Whether binding was seen depends on the method and setting.

This assay deals with T1, E. coli acyl carrier protein, single domain (ACP1) (E. coli), P0A6A8.
T1 chain: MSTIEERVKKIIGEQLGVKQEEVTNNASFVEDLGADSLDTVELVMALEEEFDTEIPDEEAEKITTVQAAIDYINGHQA
The assay is described as follows: SAXS; proteins in 20 mM NaH2PO4, 50 mM NaCl, pH 7.8, 1-3 mg/mL, flowed through a capillary at the LiX beamline; models by DAMMIF; both purified. To be noted: remark: other sources report otherwise.

B1: E. coli acyl carrier protein, single domain (ACP1), P0A6A8 1-78 (protein)
chain: MSTIEERVKKIIGEQLGVKQEEVTNNASFVEDLGADSLDTVELVMALEEEFDTEIPDEEAEKITTVQAAIDYINGHQA
Take B1: the binding result was “no binding (tested: 1–3 mg/mL)”.
